No constants are given. Whether binding was seen depends on the method and setting. In cells and extracts the contact can be indirect. Some binding calls cover weakened binding; strength is not graded here.
What was measured:
[1] = target: MAPKAPK2 (MK2), endogenous in MDA-MB-231 cells (human (endogenous in MDA-MB-231)) (UniProt P49137); assay: co-IP; endogenous proteins of MDA-MB-231 cells; IP with antibody against MK2 or against JAB1, western blot for the other; IP buffer 50 mM Tris HCl, 150 mM NaCl, 1% NP40
[2] = target: JUN in MDA-MB-231 cells (human (endogenous in MDA-MB-231)) (UniProt P05412); assay: co-IP; MDA-MB-231 cells treated with SB203580 or not; IP with anti-JUN or anti-JAB1 polyclonal antibody, western blot for the other
[3] = target: JUN activation domain-binding protein 1 (JAB1), endogenous in MDA-MB-231 cells (human (endogenous in MDA-MB-231)) (UniProt Q92905); assay: as above
[4] = target: HA-tagged JAB1 (transduced into MDA-MB-231) (human) (UniProt Q92905); assay: co-IP; MDA-MB-231 cells transduced with HA-tagged JAB1, JAB1D or JAB1A; IP with HA mAb, western blot with anti-JUN polyclonal antibody
[5] = target: HA-tagged JAB1D (JAB1-S177D, MK2-phosphomimetic mutant) (human) (UniProt Q92905); assay: as above
[6] = target: HA-tagged JAB1A (JAB1-S177A, MK2-nonphosphorylatable mutant) (human) (UniProt Q92905); assay: as above
[7] = target: JUN activation domain-binding protein 1 (JAB1), endogenous in MDA-MB-231 cells (human (endogenous in MDA-MB-231)) (UniProt Q92905); assay: co-IP; endogenous proteins of MDA-MB-231 cells; IP with antibody against MK2 or against JAB1, western blot for the other; IP buffer 50 mM Tris HCl, 150 mM NaCl, 1% NP40
[8] = target: JAB1, endogenous in HEK293 cells (human (endogenous in HEK293)) (UniProt Q92905); assay: co-IP; HEK293 cells transfected with Myc-tagged MK2, MK2-CA or MK2-DN; IP with an antibody against JAB1, immunoblotting
[9] = target: T1, JUN in MDA-MB-231 cells (human (endogenous in MDA-MB-231)), P05412; assay: co-IP; MDA-MB-231 cell lysates, with or without knockdown of JAB1; JUN homo-dimerization and hetero-dimerization with Fra-1 and ATF2; settings: remark: other sources report otherwise
T1 chain: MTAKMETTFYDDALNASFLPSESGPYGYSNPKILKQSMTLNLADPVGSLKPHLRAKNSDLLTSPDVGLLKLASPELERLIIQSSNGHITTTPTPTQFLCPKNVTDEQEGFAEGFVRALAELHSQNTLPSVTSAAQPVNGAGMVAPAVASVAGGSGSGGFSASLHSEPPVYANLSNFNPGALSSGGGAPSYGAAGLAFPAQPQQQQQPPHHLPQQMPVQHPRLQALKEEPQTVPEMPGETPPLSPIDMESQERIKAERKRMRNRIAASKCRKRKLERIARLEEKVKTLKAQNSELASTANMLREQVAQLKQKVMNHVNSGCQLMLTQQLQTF

By UniProt entry, the sequences of proteins in these tests, tags left out. Where a name states a change or a piece, a line headed by the entry shows the natural chain unless it says otherwise.
UniProt P49137: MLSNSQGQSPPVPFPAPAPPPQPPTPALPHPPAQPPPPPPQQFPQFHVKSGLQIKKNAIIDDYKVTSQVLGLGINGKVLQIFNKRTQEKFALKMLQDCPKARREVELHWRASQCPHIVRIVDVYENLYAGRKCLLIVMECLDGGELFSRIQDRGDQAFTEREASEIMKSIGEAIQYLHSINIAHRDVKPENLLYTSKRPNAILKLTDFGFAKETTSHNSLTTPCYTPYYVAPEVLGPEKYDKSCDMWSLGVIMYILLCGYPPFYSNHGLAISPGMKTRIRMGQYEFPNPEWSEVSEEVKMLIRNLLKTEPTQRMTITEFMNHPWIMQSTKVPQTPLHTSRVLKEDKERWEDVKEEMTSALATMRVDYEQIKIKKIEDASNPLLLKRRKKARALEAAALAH
UniProt Q92905: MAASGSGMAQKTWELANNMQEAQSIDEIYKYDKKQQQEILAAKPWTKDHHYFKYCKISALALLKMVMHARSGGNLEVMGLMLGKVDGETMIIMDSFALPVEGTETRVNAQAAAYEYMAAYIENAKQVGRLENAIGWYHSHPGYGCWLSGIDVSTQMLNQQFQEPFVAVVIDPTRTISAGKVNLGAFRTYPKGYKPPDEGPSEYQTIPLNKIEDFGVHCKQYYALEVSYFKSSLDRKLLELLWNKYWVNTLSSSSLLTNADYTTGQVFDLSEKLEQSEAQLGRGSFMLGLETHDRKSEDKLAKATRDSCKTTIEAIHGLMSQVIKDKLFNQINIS

[10] = target: JUN in MDA-MB-231 cells (human (endogenous in MDA-MB-231)) (UniProt P05412); assay: as above

Molecule: JUN activation domain-binding protein 1 (JAB1), endogenous in MDA-MB-231 cells (from UniProt Q92905 1-334)
- binding [1]: binds
- binding [2]: binds

Molecule: JUN in MDA-MB-231 cells (from UniProt P05412 1-331)
- binding [3]: binds
- binding [4]: binds
- binding [5]: binds
- binding [6]: binds

Molecule: MAPKAPK2 (MK2), endogenous in MDA-MB-231 cells (from UniProt P49137 1-400) (enzyme)
- binding [7]: binds

Molecule: Myc-tagged wild-type MK2 (from UniProt P49137 1-400) (enzyme)
- binding [8]: binds

B1: JUN in MDA-MB-231 cells, P05412 1-331 (protein)
chain: MTAKMETTFYDDALNASFLPSESGPYGYSNPKILKQSMTLNLADPVGSLKPHLRAKNSDLLTSPDVGLLKLASPELERLIIQSSNGHITTTPTPTQFLCPKNVTDEQEGFAEGFVRALAELHSQNTLPSVTSAAQPVNGAGMVAPAVASVAGGSGSGGFSASLHSEPPVYANLSNFNPGALSSGGGAPSYGAAGLAFPAQPQQQQQPPHHLPQQMPVQHPRLQALKEEPQTVPEMPGETPPLSPIDMESQERIKAERKRMRNRIAASKCRKRKLERIARLEEKVKTLKAQNSELASTANMLREQVAQLKQKVMNHVNSGCQLMLTQQLQTF
- binding [9]: binds

B2: Fra-1 in MDA-MB-231 cells (protein, UniProt P15407 1-271)
chain: MFRDFGEPGPSSGNGGGYGGPAQPPAAAQAAQQKFHLVPSINTMSGSQELQWMVQPHFLGPSSYPRPLTYPQYSPPQPRPGVIRALGPPPGVRRRPCEQISPEEEERRRVRRERNKLAAAKCRNRRKELTDFLQAETDKLEDEKSGLQREIEELQKQKERLELVLEAHRPICKIPEGAKEGDTGSTSGTSSPPAPCRPVPCISLSPGPVLEPEALHTPTLMTTPSLTPFTPSLVFTYPSTPEPCASAHRKSSSSSGDPSSDPLGSPTLLAL
- binding [10]: binds

B3: ATF2 in MDA-MB-231 cells, P15336 1-505 (protein)
chain: MKFKLHVNSARQYKDLWNMSDDKPFLCTAPGCGQRFTNEDHLAVHKHKHEMTLKFGPARNDSVIVADQTPTPTRFLKNCEEVGLFNELASPFENEFKKASEDDIKKMPLDLSPLATPIIRSKIEEPSVVETTHQDSPLPHPESTTSDEKEVPLAQTAQPTSAIVRPASLQVPNVLLTSSDSSVIIQQAVPSPTSSTVITQAPSSNRPIVPVPGPFPLLLHLPNGQTMPVAIPASITSSNVHVPAAVPLVRPVTMVPSVPGIPGPSSPQPVQSEAKMRLKAALTQQHPPVTNGDTVKGHGSGLVRTQSEESRPQSLQQPATSTTETPASPAHTTPQTQSTSGRRRRAANEDPDEKRRKFLERNRAAASRCRQKRKVWVQSLEKKAEDLSSLNGQLQSEVTLLRNEVAQLKQLLLAHKDCPVTAMQKKSGYHTADKDDSSEDISVPSSPHTEAIQHSSVSTSNGVSSTSKAEAVATSVLTQMADQSTEPALSQIVMAPSSQSQPSGS
- binding [9]: binds
